Data on 1 molecule can be found in PMC9177701, “Taf2 mediates DNA binding of Taf14” (Nature Communications, 2022).

Protein sequences, listed by entry. Tags and fused reporters are not part of them. Lines headed by an entry give the natural chain unless they say otherwise; changes in a name come on top.
UniProt P35189: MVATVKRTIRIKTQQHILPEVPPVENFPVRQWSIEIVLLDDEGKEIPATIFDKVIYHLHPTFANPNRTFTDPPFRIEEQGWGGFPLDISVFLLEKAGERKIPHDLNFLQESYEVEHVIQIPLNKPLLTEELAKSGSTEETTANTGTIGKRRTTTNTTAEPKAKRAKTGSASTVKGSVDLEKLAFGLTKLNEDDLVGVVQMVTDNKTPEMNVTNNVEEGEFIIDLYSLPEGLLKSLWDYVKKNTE
UniProt P23255: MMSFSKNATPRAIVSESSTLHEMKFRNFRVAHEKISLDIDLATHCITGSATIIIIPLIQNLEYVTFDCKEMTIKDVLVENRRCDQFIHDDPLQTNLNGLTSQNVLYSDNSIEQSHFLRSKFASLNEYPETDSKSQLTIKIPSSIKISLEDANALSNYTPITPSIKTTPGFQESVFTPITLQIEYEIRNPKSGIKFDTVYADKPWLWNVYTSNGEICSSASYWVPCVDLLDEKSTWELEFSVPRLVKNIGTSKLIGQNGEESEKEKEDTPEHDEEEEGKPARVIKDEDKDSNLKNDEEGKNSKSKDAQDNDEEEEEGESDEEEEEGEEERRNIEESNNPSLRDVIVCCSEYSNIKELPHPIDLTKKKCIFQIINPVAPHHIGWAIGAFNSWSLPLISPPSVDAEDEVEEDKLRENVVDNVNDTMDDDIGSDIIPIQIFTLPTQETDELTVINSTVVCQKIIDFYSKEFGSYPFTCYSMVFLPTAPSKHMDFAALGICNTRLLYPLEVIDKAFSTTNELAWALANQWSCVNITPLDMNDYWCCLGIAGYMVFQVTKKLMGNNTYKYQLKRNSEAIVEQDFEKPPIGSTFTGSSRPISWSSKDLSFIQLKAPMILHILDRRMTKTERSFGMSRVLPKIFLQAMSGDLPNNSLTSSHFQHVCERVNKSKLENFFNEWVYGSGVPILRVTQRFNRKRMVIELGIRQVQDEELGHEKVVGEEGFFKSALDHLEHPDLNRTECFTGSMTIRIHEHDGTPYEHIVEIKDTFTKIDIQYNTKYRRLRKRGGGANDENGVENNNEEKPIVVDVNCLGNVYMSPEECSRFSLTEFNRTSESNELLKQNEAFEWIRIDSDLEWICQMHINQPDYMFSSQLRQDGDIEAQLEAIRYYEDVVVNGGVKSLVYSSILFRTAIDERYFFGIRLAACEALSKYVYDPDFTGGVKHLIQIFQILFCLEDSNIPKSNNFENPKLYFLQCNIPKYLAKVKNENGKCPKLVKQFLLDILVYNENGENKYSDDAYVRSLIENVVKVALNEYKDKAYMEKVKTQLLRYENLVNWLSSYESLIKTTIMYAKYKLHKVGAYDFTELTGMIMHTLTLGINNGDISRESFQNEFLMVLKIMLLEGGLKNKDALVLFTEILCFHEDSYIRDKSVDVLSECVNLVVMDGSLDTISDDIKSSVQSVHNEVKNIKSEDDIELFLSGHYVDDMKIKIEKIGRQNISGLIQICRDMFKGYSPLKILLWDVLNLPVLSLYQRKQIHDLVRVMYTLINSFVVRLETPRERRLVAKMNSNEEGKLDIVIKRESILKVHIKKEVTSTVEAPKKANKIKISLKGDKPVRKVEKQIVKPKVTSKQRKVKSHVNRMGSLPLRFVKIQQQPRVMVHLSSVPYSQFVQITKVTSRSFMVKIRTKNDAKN

These are yes or no findings as the source states them, for the method shown. A result given as binding can be weak or reduced; the word gives no strength.

This assay has as its target Taf14ET (ET domain of Taf14, aa 168–243) (S. cerevisiae) (UniProt P35189). As to the kind of experiment: crystal structure; Taf14ET incubated with the Taf2 peptide at 1:2.5; sitting-drop vapor diffusion at 23 °C, 2.4 M sodium malonate pH 7.0; 1.7 Å; both purified.

B1: Taf2CT peptide (aa 1392–1402 of Taf2) (peptide, UniProt P23255 1392-1402, looked up)
peptide: SRSFMVKIRTK
notes: Taf2, subunit of yeast TFIID, C-terminal hxhKh motif-containing tail, aa 1392–1402; also called Taf2 peptide; C-terminal tail of Taf2; source: synthetic peptide (Synpeptide)
For B1, the binding entry is reported as “binds”.
